# In US20220170081A1, “METHOD FOR DETECTING TARGET NUCLEIC ACID AND KIT” (CANON KABUSHIKI KAISHA, priority 2020, published 2022):
# Some entries share one result that the patent states for a list of compounds. For at least one compound, name, drawing or mass did not settle the structure.
# Test system: EnGen Lba Cas12a (Cpf1)
# Assay: Experiment of cleavage activity of Cas12a (trans-cleavage of fluorescent reporter molecule)
# Type: biochemical
# Settings: concentration changed between 0 to 12 mM; FIGS. 4A to 4E
# Description: Thereafter, in a 96-well plate (137101, Thermo Fisher Scientific), binding buffer, various additives, a reporter molecule, and water were added, the total volume was adjusted to 80 μL, and the fluorescence intensity was measured every 2 min at 37° C. for 1 to 2 hours by using a fluorescent plate reader Synergy MX (BioTec). Regarding the measurement wavelength, for HiLyte488, an excitation wavelength of 485±20 nm and a fluorescence wavelength of 528±20 nm were used. For the IDT reporter, an excitation wavelength of 535±20 nm and a fluorescence wavelength of 595±20 nm were used. For a reporter marked with Cy5 or Alexa Fluor 647, an excitation wavelength of 620±20 nm and a fluorescence wavelength of 680±20 nm were used.
# FIGS. 1A and 1B illustrate a change over time in the ratio of the fluorescence intensity of the IDT reporter to the fluorescence intensity of an internal standard dye Hilyte488.
smiles,measurement,value
"NCCCN [1,3-diaminopropane]",addition concentration at which an effect of facilitating the reaction was observed,≥ 2.0 mM
